Assay results reported in PubChem BioAssay AID624297 (National Center for Advancing Translational Sciences (NCATS), 2012).
Values joined by “and” are separate entries in the source; they are usually repeats but may differ in a detail not shown here. Identical values can stand only once. Out of some 340,000 compounds screened, about 6,200 (1.8%) were called active. Inconclusive means that the source gave no clear call. Such entries were picked first, then a sample of the others. The call rests on the fitted dose curve; in most records, active means well fitted activation curve with a large enough effect; inconclusive means small, poorly fitted or top-dose-only effect; inactive means no such curve, though single readings can be large or run the other way. Where the call is inconclusive, the potency comes from a doubtful curve fit.

Assay: A quantitative high throughput screen for small molecules that induce DNA re-replication in SW480 colon adenocarcinoma cells. Further: nearly all actives have a fitted effect of over 55% in size. On re-replication activation: % of control where 0% means no effect.
Settings: Hoechst DNA content imaging, 48 h; re-replication activation: at 46.1 µM (top of the series) unless noted
Outline: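 Image-based DNA-content assay: after two days of treatment, nuclei were labelled with the DNA dye Hoechst and imaged, and hits were compounds raising the count of nuclei showing high fluorescence intensity.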
Potency means the concentration at half of the fitted maximal effect.

Row | SMILES | re-replication activation | Potency
1 | CCN(CC(=O)Nc1ccc2c(c1)OCCO2)C(=O)/C=C/c1ccc([N+](=O)[O-])cc1 | inactive: -2.13% | 
2 | CCOc1cc(N2CCOCC2)c(OCC)cc1NC(=O)COc1cccc(CC)c1 | inactive: -6% | 
3 | COC(=O)c1cc(C(=O)NC(C)C2CC3CCC2C3)cc([N+](=O)[O-])c1 (stereo unspecified) |  | inconclusive: 35.5 µM [activator, single point]
4 | CNC(=O)c1ccccc1Sc1ccccc1C#N | inactive: -85.1% | 
5 | O=C(C1=C[C@H](c2ccc(Br)cc2)C[C@H](OCc2ccc(CO)cc2)O1)N1CCN(Cc2ccc3c(c2)OCO3)CC1 | inactive: -0.397% | 
6 | CCN1CCCC1CN(Cc1cc2ccc(C)cc2[nH]c1=O)C(=S)Nc1ccc(OC)cc1 (stereo unspecified) |  | inconclusive: 23.1 µM [activator, single point]
7 | O=C1N/C(=C/c2ccc(Br)cc2)C(O)=C1C=NCc1ccccc1 |  | inconclusive: 11.6 µM [activator, partial curve, poor fit]
8 | O=C(CSc1ncn[nH]1)Nc1ccc2c(c1)OCCO2 | inactive: -21.3% | 
9 | Cc1cccc(N2CCN(C(=O)c3cc(S(=O)(=O)N4CCCC4)cn3C)CC2)c1C |  | active: 14.6 µM
10 | CCOC(=O)N1CCc2c(sc3ncn(Cc4ccc(F)cc4)c(=O)c23)C1 |  | inconclusive: 20.6 µM [activator, partial curve, poor fit]
11 | O=c1c2c3c(sc2n(CCN2CCCC2)c(=O)n1Cc1ccccc1)CCCCC3 |  | inconclusive: 29.1 µM [activator, single point]
12 | Cc1c(Cl)cccc1N=c1c([N+](=O)[O-])nn(-c2ccccc2)n1O | inactive: 1.79% | 
13 | CC(C)NC(=O)CSc1nc2ccccc2c(=O)n1CCCOC(C)C | inactive: -2.39% | 
14 | O=C1CCC/C1=c1\s/c(=C\c2cccnc2)c(=O)n1-c1ccccc1 | inactive: 0.812% | 
15 | O=C(Cc1ccccc1)Nc1cc(C(=O)c2ccccc2)ccc1N1CCOCC1 | inactive: 1.08% | 
16 | COc1ccccc1N(CC(=O)NCC1CCCO1)C(=O)CNS(=O)(=O)c1ccc(Cl)cc1 (stereo unspecified) |  | active: 0.731 µM
17 | O=C1C(Cl)=C(Nc2ccc3cn[nH]c3c2)C(=O)c2ccccc21 |  | active: 2.31 µM
18 | COCCCN(C(C)=O)c1nc(-c2ccc(OC)cc2)cs1 |  | inconclusive: 25.9 µM [activator, single point]
19 | CCS(=O)(=O)NCC(c1cccnc1)N1CCN(c2ccc(OC)cc2)CC1 (stereo unspecified) |  | inconclusive: 6.51 µM [activator, single point]
20 | O=S(=O)(NCc1csc(-c2cccs2)n1)c1cccc(C(F)(F)F)c1 |  | inconclusive: 20.6 µM [activator, single point]
21 | COc1cccc(N2CCc3c(C)nc4ccc(Cl)cc4c32)c1 |  | inconclusive: 29.1 µM [activator, single point]

Row | SMILES | re-replication activation | Potency
22 | CCOc1ccc(-c2c(=O)n(OCc3nc4ccccc4[nH]3)c3ccccc3[n+]2[O-])cc1 |  | inconclusive: 4.61 µM [activator, partial curve, poor fit]
23 | CC(C)(C)OC(=O)N1CCC(NC(=O)c2nc[nH]c2C(=O)N2CCN(c3ccccc3)CC2)CC1 | inactive: -33.3% | 
24 | CC(=O)c1sc2nc(C)cc(C)c2c1N |  | inconclusive: 5.8 µM [activator, full curve, poor fit]
25 | C=CCNC(=O)c1c(CSc2ccc(Cl)cc2)noc1C(=O)NCc1ccccc1 |  | inconclusive: 29.1 µM [activator, single point]
26 | CCC(C)n1ncn(-c2ccc(N3CCN(c4ccc(OCC5COC(Cn6cncn6)(c6ccc(Cl)cc6Cl)O5)cc4)CC3)cc2)c1=O (stereo unspecified) |  | inconclusive: 1.84 µM [activator, full curve] and inconclusive: 820 nM [activator, single point]
27 | CCOC(=O)C1=C(Nc2ccccc2)CC(C)(O)C(C(=O)OCC)C1c1ccc(Br)cc1 (stereo unspecified) |  | inconclusive: 29.1 µM [activator, single point]
28 | CCCCCCOc1ccc(/C=c2\s/c(=C(/C#N)C(=O)NCc3ccco3)n(-c3ccccc3)c2=O)cc1 |  | inconclusive: 13 µM [activator, partial curve, poor fit]
29 | COCCn1c(C)cc(C2=NNC(=Nc3ccc(Cl)cc3Cl)SC2)c1C | inactive: -3.43% | 
30 | Cc1ccc(S(=O)(=O)CC(=O)Nc2nccs2)cc1 |  | inconclusive: 5.8 µM [activator, partial curve, poor fit]
31 | O=c1oc2c3c(nn2c2ccccc12)CCCC3 |  | inconclusive: 6.51 µM [activator, partial curve, poor fit]
32 | CCOC(=O)c1cc2c(=O)n3cccc(C)c3nc2n(Cc2ccco2)c1=NC(=O)c1cccnc1 |  | inconclusive: 32.6 µM [activator, partial curve, poor fit]
33 | CCOc1ccc(N2CCc3c(C)nc(SC)nc32)cc1 |  | inconclusive: 14.6 µM [activator, partial curve, poor fit]
34 | C=CCOC(=O)C1=C[C@@H](c2coc3ccccc3c2=O)[C@H](CCCO)[C@@H](OCC)O1 | inactive: -10.8% | 
35 | Cc1ccc2c(c1)N(S(=O)(=O)c1cc(-c3onc(C)c3C)ccc1C)CCO2 |  | inconclusive: 10.3 µM [activator, partial curve, poor fit]
36 | O=C(CNc1cccc([N+](=O)[O-])c1)N/N=C/c1ccc([N+](=O)[O-])o1 |  | inconclusive: 16.4 µM [activator, partial curve]
37 | CC(=O)Nc1ccc(S(=O)(=O)N(C)c2nc3ccccc3nc2Cl)cc1 |  | inconclusive: 23.1 µM [activator, single point]
38 | COc1cccc(-c2cc(C(=O)Nc3cc(OC)c(OC)c(OC)c3)no2)c1 |  | inconclusive: 16.4 µM [activator, single point]
39 | NS(=O)(=O)c1ccc(NC(=O)CCc2ccccc2)cc1 |  | inconclusive: 29.1 µM [activator, single point]
40 | COC(=O)Nc1ccc2ccc3c(NC(=O)OC)ccc4ccc1c2c43 |  | inconclusive: 20.6 µM [activator, single point]
41 | CCOC(=O)[C@H]1[C@H]2COc3cc(OC)ccc3[C@@H]2N2C(=O)CN(Cc3ccccc3)C(=O)[C@@]12C |  | inconclusive: 16.4 µM [activator, partial curve, poor fit]
